The other results are listed elsewhere or left out. Most entries show no effect beyond the scatter of the controls.

Chains of the proteins cited; added tags and fusions are not shown. Lines headed by an entry give the natural chain unless they say otherwise; changes in a name come on top.
UniProt Q9CQD1: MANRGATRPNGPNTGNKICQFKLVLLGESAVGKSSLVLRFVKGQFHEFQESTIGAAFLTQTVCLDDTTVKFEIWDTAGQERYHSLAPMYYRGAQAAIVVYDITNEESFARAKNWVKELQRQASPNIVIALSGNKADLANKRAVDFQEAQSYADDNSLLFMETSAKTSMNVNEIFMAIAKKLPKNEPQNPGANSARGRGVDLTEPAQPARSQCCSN
UniProt Q9CWZ7: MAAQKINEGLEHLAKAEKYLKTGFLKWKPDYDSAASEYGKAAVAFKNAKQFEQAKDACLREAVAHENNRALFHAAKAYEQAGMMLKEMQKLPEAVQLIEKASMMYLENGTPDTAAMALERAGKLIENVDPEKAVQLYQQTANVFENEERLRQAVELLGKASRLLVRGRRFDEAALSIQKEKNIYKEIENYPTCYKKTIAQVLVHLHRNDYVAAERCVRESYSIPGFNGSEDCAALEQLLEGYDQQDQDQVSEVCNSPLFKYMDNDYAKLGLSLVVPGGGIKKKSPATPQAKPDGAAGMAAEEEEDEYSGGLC
UniProt Q9CQ88: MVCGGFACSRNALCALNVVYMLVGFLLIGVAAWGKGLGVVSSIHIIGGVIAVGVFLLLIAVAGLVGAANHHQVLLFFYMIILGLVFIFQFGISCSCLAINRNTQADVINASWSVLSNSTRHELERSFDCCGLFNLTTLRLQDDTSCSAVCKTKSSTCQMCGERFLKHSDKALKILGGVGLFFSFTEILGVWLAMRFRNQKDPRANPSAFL
UniProt Q9CQJ6: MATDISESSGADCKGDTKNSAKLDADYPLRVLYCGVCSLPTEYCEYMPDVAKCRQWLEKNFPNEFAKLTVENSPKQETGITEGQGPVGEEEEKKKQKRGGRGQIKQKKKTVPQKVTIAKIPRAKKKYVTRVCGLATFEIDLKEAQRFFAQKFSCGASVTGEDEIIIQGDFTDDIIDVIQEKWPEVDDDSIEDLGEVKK
UniProt Q9CR95: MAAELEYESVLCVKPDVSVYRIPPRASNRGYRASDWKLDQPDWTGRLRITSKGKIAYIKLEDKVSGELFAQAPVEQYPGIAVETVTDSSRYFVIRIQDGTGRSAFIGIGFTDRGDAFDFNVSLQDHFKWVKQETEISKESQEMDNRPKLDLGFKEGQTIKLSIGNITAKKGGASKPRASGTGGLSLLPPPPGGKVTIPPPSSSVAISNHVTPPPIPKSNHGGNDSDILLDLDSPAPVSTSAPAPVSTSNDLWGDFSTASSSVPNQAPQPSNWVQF
UniProt Q99P31: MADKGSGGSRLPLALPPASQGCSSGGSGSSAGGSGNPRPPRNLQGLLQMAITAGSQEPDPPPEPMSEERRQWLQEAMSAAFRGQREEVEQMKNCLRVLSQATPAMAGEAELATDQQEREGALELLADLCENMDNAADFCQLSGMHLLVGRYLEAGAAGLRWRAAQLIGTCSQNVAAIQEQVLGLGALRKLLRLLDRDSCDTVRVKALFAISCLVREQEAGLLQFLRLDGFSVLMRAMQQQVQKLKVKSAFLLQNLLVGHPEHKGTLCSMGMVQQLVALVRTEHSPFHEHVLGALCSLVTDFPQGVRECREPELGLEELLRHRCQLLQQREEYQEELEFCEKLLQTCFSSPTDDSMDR
UniProt Q9CQ00: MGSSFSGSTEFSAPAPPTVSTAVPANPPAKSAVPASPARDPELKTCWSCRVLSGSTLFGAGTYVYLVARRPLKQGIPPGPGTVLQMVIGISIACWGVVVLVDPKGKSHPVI
UniProt Q9CR20: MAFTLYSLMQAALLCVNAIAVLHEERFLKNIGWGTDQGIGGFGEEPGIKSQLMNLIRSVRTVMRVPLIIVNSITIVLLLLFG
UniProt Q99KJ8, whole entry: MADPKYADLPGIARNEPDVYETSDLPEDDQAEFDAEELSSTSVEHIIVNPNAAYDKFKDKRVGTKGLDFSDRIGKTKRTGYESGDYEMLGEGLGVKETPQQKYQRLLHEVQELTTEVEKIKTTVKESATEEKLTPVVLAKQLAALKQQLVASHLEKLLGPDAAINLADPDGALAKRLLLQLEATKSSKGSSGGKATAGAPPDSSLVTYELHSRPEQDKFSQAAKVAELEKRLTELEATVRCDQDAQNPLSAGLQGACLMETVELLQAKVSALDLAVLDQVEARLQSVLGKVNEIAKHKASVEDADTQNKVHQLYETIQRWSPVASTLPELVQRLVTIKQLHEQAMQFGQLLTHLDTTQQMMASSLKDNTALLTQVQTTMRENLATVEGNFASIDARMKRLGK
UniProt Q9CQV4: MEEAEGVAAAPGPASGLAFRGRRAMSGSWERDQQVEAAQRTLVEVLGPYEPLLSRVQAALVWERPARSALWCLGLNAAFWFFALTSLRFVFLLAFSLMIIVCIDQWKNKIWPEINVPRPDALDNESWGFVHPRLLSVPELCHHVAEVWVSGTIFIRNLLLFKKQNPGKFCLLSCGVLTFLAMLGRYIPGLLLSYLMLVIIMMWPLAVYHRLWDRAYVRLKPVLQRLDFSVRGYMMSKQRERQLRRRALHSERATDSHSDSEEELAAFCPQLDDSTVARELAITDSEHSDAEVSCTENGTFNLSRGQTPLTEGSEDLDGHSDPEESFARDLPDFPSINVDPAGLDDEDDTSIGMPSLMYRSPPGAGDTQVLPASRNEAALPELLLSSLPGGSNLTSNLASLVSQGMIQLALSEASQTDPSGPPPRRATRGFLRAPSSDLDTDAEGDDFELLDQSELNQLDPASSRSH
UniProt Q99LC8: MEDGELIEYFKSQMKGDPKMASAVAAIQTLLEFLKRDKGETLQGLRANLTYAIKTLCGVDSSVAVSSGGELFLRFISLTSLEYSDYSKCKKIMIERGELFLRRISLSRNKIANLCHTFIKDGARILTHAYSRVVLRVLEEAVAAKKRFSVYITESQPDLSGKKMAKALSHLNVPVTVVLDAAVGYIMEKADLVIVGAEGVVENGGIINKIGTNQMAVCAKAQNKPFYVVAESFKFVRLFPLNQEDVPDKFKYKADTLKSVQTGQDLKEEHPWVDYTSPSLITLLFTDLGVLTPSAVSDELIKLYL
UniProt Q9CR23: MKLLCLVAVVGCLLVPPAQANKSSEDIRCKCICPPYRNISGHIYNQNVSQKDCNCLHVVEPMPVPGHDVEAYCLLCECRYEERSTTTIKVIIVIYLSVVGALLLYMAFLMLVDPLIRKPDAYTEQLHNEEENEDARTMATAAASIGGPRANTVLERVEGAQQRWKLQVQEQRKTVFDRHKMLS
UniProt Q9CX80: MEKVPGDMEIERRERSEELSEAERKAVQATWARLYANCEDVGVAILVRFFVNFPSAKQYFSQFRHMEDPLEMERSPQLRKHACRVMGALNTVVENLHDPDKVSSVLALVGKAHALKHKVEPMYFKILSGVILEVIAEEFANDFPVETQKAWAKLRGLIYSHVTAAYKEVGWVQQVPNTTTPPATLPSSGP
UniProt Q99LS3: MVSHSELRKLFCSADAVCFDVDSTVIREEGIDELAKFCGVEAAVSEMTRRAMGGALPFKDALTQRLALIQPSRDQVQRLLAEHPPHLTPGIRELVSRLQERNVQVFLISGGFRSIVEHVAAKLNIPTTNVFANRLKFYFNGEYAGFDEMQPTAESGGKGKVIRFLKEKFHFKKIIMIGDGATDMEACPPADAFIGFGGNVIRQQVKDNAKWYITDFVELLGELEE
UniProt Q9CQQ7: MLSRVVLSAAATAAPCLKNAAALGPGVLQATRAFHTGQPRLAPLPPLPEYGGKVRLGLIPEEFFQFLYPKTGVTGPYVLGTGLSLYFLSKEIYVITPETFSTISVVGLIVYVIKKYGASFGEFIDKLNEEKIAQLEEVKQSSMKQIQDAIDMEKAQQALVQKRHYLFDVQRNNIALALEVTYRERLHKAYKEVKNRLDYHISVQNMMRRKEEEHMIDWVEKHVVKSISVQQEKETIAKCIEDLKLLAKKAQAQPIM
UniProt Q9CR68: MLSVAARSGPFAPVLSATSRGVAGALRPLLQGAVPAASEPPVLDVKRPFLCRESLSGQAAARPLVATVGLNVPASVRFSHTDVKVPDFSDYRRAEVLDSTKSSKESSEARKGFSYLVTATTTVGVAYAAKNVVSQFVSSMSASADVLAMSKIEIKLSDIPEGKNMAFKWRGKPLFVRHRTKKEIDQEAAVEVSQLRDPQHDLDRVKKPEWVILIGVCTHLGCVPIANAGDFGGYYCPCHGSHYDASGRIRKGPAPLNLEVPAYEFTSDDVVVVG
UniProt Q99JR1: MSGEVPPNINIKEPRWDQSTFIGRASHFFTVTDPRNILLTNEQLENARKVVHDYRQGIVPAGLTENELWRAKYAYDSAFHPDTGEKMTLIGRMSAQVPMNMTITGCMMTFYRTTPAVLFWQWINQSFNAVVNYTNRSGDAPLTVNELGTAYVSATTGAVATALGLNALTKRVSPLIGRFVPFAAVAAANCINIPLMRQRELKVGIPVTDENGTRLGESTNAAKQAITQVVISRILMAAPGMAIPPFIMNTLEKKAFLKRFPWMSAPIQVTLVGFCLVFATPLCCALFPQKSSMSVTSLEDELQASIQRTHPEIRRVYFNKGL
UniProt Q9CXI5: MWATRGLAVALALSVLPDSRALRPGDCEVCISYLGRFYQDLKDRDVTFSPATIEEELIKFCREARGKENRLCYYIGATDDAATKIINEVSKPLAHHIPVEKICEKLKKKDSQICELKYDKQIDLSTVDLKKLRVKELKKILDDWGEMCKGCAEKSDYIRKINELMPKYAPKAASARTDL
UniProt Q9CQB5: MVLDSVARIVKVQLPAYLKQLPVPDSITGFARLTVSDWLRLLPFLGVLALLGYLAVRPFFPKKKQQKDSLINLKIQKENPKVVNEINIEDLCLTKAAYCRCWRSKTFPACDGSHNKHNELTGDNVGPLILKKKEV
UniProt Q99KU0: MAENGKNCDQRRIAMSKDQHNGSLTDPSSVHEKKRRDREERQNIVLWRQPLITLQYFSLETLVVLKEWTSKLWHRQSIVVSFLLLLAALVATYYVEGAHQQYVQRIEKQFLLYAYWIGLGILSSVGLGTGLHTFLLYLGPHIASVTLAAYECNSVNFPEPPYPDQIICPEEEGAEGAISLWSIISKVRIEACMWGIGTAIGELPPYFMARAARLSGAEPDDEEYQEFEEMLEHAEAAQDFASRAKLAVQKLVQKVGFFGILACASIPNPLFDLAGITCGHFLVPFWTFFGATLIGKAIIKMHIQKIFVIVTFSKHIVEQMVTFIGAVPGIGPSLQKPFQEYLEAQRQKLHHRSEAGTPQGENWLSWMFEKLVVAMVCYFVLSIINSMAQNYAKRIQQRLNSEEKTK
UniProt Q99JW4, whole entry: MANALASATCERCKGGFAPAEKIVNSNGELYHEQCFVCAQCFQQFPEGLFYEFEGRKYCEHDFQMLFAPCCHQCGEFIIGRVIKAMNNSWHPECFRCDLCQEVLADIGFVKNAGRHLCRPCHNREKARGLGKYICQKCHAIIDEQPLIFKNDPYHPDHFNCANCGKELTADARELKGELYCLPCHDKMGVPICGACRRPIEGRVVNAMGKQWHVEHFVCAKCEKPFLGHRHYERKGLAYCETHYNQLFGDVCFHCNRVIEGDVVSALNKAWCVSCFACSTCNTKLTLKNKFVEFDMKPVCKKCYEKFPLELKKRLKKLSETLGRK
UniProt Q9CQU3: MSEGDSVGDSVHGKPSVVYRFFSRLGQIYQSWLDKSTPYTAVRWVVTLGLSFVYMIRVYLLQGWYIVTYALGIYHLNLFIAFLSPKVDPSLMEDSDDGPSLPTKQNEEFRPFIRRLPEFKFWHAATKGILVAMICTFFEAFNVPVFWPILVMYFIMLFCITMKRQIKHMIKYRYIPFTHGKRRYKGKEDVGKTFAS
UniProt Q9CWY9: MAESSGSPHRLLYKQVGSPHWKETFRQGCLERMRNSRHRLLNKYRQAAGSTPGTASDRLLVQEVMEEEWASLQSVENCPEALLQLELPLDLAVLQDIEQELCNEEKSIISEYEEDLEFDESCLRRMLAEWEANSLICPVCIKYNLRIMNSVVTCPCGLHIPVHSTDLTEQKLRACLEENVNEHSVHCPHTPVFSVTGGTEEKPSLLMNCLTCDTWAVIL
UniProt Q9CQI6: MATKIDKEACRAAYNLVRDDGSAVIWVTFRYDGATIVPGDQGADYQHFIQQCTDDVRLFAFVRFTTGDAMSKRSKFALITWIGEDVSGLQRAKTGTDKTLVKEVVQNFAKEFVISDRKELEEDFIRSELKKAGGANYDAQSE
UniProt Q9CR59: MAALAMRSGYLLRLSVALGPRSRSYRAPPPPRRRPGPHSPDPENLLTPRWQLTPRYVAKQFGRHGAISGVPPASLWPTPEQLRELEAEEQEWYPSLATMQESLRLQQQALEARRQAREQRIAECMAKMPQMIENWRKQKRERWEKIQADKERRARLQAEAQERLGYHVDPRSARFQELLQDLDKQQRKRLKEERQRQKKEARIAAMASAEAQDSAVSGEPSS
UniProt Q9CRD2: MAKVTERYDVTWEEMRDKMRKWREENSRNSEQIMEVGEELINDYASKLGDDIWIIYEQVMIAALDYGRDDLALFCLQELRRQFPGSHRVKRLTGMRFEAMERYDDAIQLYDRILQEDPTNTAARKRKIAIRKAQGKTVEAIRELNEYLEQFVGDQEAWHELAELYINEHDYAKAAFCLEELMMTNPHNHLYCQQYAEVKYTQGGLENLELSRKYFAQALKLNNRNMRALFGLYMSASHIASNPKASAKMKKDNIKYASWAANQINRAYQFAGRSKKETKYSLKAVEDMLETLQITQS

Compound in the experiment: CN[C@@H]1C[C@H]2O[C@@](C)([C@@H]1OC)n1c3ccccc3c3c4c(c5c6ccccc6n2c5c31)C(=O)NC4 [staurosporine]
The experiment is described as follows: log2 fold change of pooled soluble protein (PISA), ligand vs vehicle (log2 ratio); higher = more thermally stabilized. The conditions noted are these: ligand concentration: 20 uM; assay format: PISA pool 52.9/55.5/58.6 C.
For the target UniProt Q9CQD1, the “log2 fold change of pooled soluble protein” value (“log2 fold change” for short) was -0.0755.
In the case of UniProt Q9CWZ7 it was -0.0238; in that of UniProt Q9CW79, 0.244.
Consider UniProt Q9CQQ8, for which the “log2 fold change” value was -0.0621.
Next, UniProt Q9CQ88: 0.209.
On to UniProt Q99MR1, for which the “log2 fold change” value was -0.114.
In the case of UniProt Q9CQJ6 it was -0.113.
As for UniProt Q9CR95, the “log2 fold change” value was -0.0169.
Next, UniProt Q99P31: -0.00356.
Next, UniProt Q9CQ00: 0.256; UniProt Q9CR20: 0.0603.
UniProt Q99KJ8: the “log2 fold change” value is -0.032.
In the case of UniProt Q9CQV4 it was -0.118; in that of UniProt Q9CXA2, -0.0604; in that of UniProt Q99LC8, 0.335.
Take UniProt Q9CR23: the “log2 fold change” value was -0.192.
Regarding UniProt Q9CX80, the “log2 fold change” value is -0.0604.
For the target UniProt Q99LS3, the “log2 fold change” value is -0.217.
In the case of UniProt Q99PG0 it was 0.0566; in that of UniProt Q9CQQ7, -0.121; in that of UniProt Q9CR68, 0.057.
Next, UniProt Q99JR1: -0.12; UniProt Q9CXI5: 0.104; UniProt Q9CQB5: -0.104.
On to UniProt Q99KU0, for which the “log2 fold change” value stood at 0.18.
Next, UniProt Q99JW4: 0.00357; UniProt Q9CQU3: -0.00876.
In the case of UniProt Q9CWY9 it was 0.239; in that of UniProt Q9CQ75, -0.214.
In the case of UniProt Q99LD4 it was -0.0191; in that of UniProt Q9CRB3, 0.0584.
Consider UniProt Q9CSV6, for which the “log2 fold change” value is -0.167.
In the case of UniProt Q9CQI6 it was 0.0575; in that of UniProt Q9CR59, -0.119.
Next, UniProt Q9CRD2: -0.0148; UniProt Q99MN1: -0.0905.

(Values after the supplement of paper PMC12819154, “High-throughput peptide-centric local stability assay extends protein–ligand identification to membrane proteins, tissues and bacteria” (Nature Structural & Molecular Biology, 2025).)
